Experimental findings from article PMC4115656 are described below.

Amino acid sequences for entries named in this document (tags omitted). A change or cut given only in a name is not applied to a line headed by its entry.
UniProt Q13153: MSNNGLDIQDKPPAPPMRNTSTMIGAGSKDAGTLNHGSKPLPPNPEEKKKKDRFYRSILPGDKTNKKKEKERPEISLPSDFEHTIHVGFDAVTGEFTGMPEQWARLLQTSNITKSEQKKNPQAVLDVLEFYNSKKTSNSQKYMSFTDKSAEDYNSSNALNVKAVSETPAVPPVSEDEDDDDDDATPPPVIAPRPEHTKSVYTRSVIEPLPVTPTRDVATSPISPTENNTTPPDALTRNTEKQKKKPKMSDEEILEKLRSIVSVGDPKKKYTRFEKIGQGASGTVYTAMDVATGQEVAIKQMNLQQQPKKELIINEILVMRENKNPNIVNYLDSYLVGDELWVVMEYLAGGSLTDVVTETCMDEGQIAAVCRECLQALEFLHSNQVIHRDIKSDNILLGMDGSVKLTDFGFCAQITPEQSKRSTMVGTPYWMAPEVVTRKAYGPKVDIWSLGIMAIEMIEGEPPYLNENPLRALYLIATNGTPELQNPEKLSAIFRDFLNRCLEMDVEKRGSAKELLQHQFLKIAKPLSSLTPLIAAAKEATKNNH
UniProt P60766: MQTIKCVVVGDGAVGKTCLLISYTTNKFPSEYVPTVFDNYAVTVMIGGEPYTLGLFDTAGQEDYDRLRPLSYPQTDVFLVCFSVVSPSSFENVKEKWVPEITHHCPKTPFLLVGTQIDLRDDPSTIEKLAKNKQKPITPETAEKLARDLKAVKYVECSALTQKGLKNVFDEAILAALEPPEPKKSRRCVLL

The target in the test is GST protein fused to CRIB domain from human PAK1B (human) (UniProt Q13153). Put plainly: pull-down; purified GST-CRIB on glutathione-Sepharose beads incubated with hippocampal lysates of Cdc42f/f (control) and Cdc42f/f: Camk2a-Cre mice, 2 hr at 4°C; lysis buffer 150 mM NaCl, 25 mM HEPES pH 7.4, 1 mM EDTA, 0.5 mM EGTA, 0.5% NP-40; bound proteins detected by western blot for Cdc42 and Rac1; only the target purified. In general terms: Immunoblotting shows a protein as a band on a membrane.

No constants are given. Whether binding was seen depends on the method and setting. Binding seen in cells or lysates may run through a third protein. A result given as binding can be weak or reduced; the word gives no strength.

Regarding Cdc42 (from UniProt P60766 1-191), the binding result is recorded as “binds”.
